The source of these data is patent US20190062751.

Sequences of proteins named here, by UniProt entry; tags and fusion partners are left off. Residues count along the entry.
UniProt Q96T25, 418-552: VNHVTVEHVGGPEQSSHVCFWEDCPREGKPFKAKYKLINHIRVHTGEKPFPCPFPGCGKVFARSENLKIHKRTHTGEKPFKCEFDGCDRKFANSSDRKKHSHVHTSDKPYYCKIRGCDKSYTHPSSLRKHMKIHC

This series has as its target ZIC5 zinc finger domain (GST-ZIC5 ZF) (Homo sapiens) (UniProt Q96T25). In words: EMSA. The following applies: 40 mM Tris-HCl pH 8.0, 7 mM MgCl2, 90 mM NaCl, poly(dI-dC), purified recombinant protein, protein details: GST N-terminal fusion (pGEX-6P), E. coli BL21, label: biotin.

The exact form of at least one protein or probe is not confirmed. A negative result means that nothing was seen under these conditions.

Take “TCAGCCAATCAGCGGTACGGGGGGCGGTGCCTCCG (double strand) [pCDH1 probe (E-cadherin promoter)]”: the binding result is on record as “binds”.
As for “GATCCTGTGATTTTCGTCTTGGGTGATCTCCCTCG (double strand) [M5 probe]”, the binding result (variant of GBS probe (Gli binding sequence)) is listed as “no binding”.
“GATCCTGTGATTTTCGTCTTGGGTGGTCTCCCTCG (double strand) [GBS probe (Gli binding sequence)]”: the binding result was “binds”.
